Reference: PubChem BioAssay AID2685 (National Center for Advancing Translational Sciences (NCATS), 2010)
This is one part of the list. The main result of the screen is listed elsewhere. These columns were measured beside it and carry no call. Compounds called inactive in the main read-out are mostly missing here. Potencies come from curve fits of mixed quality, noted in brackets.

Test: qHTS Assay for Lipid Storage Modulators in Drosophila S3 Cells;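 as to cell number change: cells counted by Cell Tracker Red CMTPX staining in the red channel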
Conditions: BODIPY lipid droplet fluorescence, 18-24 h; for cell number change: measured here: cell count max response, cells fed with added oleic acid
In short: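 Drosophila S3 cells loaded with oleic acid (400 uM, as added) and compounds at several concentrations; lipid droplets imaged by 488-nm laser-scanning cytometry, 500–530 nm intensity and object ratio to cell channel. Percent activity normalized to 20 uM Triacsin C.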

[1] = measured here: lipid fluorescence (Fed channel) AC50, cells fed with added oleic acid
[2] = measured here: cell number channel AC50, cells fed with added oleic acid

## CCOc1ccc(C(=O)NC2CCN(S(=O)(=O)c3ccccc3)CC2)cc1
  cell number change: -10.4%
[1]
  AC50: 29.1 µM [rising, partial curve]

## Cc1cc(C)cc(NC(=O)C2CCN(c3nc(C)cc(C)n3)CC2)c1
  cell number change: 3.21%
[1]
  AC50: 5.17 µM [rising, single point]

## COc1cccc(NC(=O)c2ccccc2OCc2c(C)noc2C)c1
  cell number change: 50%
[2]
  AC50: 20.6 µM [rising, single point]

## c1ccc(Cn2cc(-c3cccnc3)cn2)cc1
  cell number change: -18.9%

## CCn1nc(C)c(CNC(=O)C2CCC(=O)N(Cc3cccc(F)c3)C2)c1C (stereo unspecified)
  cell number change: 10.4%
[2]
  AC50: 1.16 µM [rising, full curve, poor fit]

## CC(=O)N/C(=C/C(C)C)c1ccccc1
  cell number change: 6.02%

## Cc1ccc(C(=O)N2CCN(C(=O)CN3CCOCC3)C2)cc1
  cell number change: 1.79%
[1]
  AC50: 1.64 µM [falling, partial curve]

## COc1cc(OC)c(NC(=O)CSc2nc3ccncc3[nH]2)cc1Cl
  cell number change: 6.42%
[1]
  AC50: 29.1 µM [rising, single point]

## CC1(C)C(=O)OC(C(=O)c2ccccc2)C2(CCCCC2)C1=O (stereo unspecified)
[1]
  AC50: 6.51 µM [falling, single point]

## COc1cc(NS(=O)(=O)c2ccc(C)c(C)c2)c(OC)cc1Cl
  cell number change: 20.5%

## CNC(=S)NNC(=O)c1cn(C)nc1C
  cell number change: 25.8%
[1]
  AC50: 32.6 µM [rising, single point]

## CCN(CC(=O)Nc1c(F)cccc1F)C(=O)c1ccccn1
  cell number change: 0.519%
[1]
  AC50: 0.326 µM [falling, full curve]

## Cc1nc2ccc(NC(=S)N3CCOCC3)cc2nc1C
  cell number change: -42.7%

## CCc1c(C)nc2ncnn2c1N1CCCC(C(=O)NCc2cccs2)C1 (stereo unspecified)
  cell number change: -13.3%
[1]
  AC50: 29.1 µM [falling, single point]

## COc1ccc(C2(O)CCN(CC(=O)Nc3nc(-c4ccccc4)cs3)CC2)cc1
[2]
  AC50: 0.58 µM [rising, single point]
[1]
  AC50: 23.1 µM [rising, single point]

## CCC(NC(=S)NCc1ccc(F)cc1)c1ccc(C(C)C)cc1 (stereo unspecified)
[2]
  AC50: 0.164 µM [rising, full curve, poor fit]
[1]
  AC50: 0.58 µM [rising, single point]

## CCC1COCCS(=O)(=O)N1Cc1cccc(Cl)c1 (stereo unspecified)
  cell number change: -11.3%
[1]
  AC50: 4.11 µM [falling, single point]

## CCOc1ccc(N=Nc2c(=O)[nH]n3c(=O)cc(C)[nH]c23)cc1
[1]
  AC50: 29.1 µM [rising, single point]

## COc1ccc2c(=O)cc(-c3cccnc3)oc2c1OC
  cell number change: 13.9%
[1]
  AC50: 4.11 µM [rising, full curve, poor fit]

## COC(=O)COc1ccc(S(=O)(=O)NCc2ccc3c(c2)OCO3)cc1
  cell number change: 16.4%
[1]
  AC50: 10.3 µM [rising, single point]

## CC(=O)CC(c1ccccc1)S(=O)(=O)c1ccc(C)cc1 (stereo unspecified)
[1]
  AC50: 29.1 µM [rising, single point]

## COc1cc(CNc2ccc(CNc3ncn[nH]3)cc2)cc(Cl)c1OCc1ccccc1
  cell number change: 20.5%
[1]
  AC50: 29.1 µM [rising, single point]

## O=C(CNc1ccc2c(c1)OCO2)N/N=C\c1cn(Cc2ccccc2)c2ccccc12
  cell number change: 9.29%
[1]
  AC50: 0.0259 µM [rising, full curve]

## O=C(c1ccc(Cl)cc1)c1ccc(OCC(=O)N2CCOCC2)cc1
  cell number change: 42.5%
[2]
  AC50: 4.11 µM [rising, full curve]
[1]
  AC50: 29.1 µM [rising, partial curve]

## CCOC(=O)CC1=C(C(=O)OCC)C(c2ccncc2)C(C#N)=C(N)O1 (stereo unspecified)
  cell number change: -19.1%
[1]
  AC50: 0.731 µM [falling, partial curve]

## COc1ccccc1C(=O)NC(CCSC)C(=O)NNC(=O)C(C)Oc1ccccc1F (stereo unspecified)
  cell number change: -21%
[1]
  AC50: 0.00461 µM [falling, full curve, poor fit]

## O=C(N/N=C/C(Br)=C\c1ccccc1)c1ccco1
  cell number change: 4.16%
[1]
  AC50: 0.291 µM [rising, full curve, poor fit]

## Cc1ccc(-c2nnc(N(C)C(=O)c3ccccn3)s2)cn1
[1]
  AC50: 6.51 µM [falling, single point]

## CCn1c(N2CCN(Cc3ccc([N+](=O)[O-])cc3)CC2)nc2ccccc21
  cell number change: -7.61%
[1]
  AC50: 20.6 µM [falling, single point]

## O=C(c1ccco1)N1CCN(S(=O)(=O)/C=C/c2ccccc2)CC1
  cell number change: 38.6%
[2]
  AC50: 10.3 µM [rising, single point]

## CN(Cc1ccc(Cl)cc1)C(=O)CCl
  cell number change: -8.43%
[1]
  AC50: 0.00411 µM [falling, full curve, poor fit]

## Oc1ccccc1N=Cc1c(O)ccc2ccccc12
  cell number change: -35%
[2]
  AC50: 29.1 µM [falling, single point]
[1]
  AC50: 6.51 µM [rising, single point]

## Cc1ccc(C)c(S(=O)(=O)N2CCN(C(=O)c3ccncc3)CC2)c1
  cell number change: -2.24%

## S=C(NCCCN1CCOCC1)N(Cc1ccccc1)Cc1ccccc1
[1]
  AC50: 29.1 µM [rising, partial curve, poor fit]

## O=C(COC(=O)c1cc2ccccc2cc1O)NC(=O)NCc1ccco1
  cell number change: -30.3%
[2]
  AC50: 18.4 µM [falling, single point]
[1]
  AC50: 18.4 µM [falling, single point]

## O=C(NCc1ccc(F)cc1)c1cnc2sccn2c1=O
[1]
  AC50: 0.58 µM [rising, single point]

## COC(=O)CCCC(=O)N1CCCC(C(=O)c2ccccc2SC)C1 (stereo unspecified)
  cell number change: 11.2%
[1]
  AC50: 6.51 µM [falling, single point]

## COc1ccc(C(=O)NC2CCCc3ccccc32)cc1Br (stereo unspecified)
  cell number change: -23.8%
[1]
  AC50: 6.51 µM [falling, single point]

## CC(C)Cn1c(N)c(C(=O)COC(=O)C2CCCCC2)c(=O)n(C)c1=O
  cell number change: 2.49%
[2]
  AC50: 3.26 µM [rising, single point]
[1]
  AC50: 6.51 µM [rising, single point]

## CN(Cc1ccc(F)cc1)C(=O)CNC(=O)C1CCCCC1
  cell number change: 38.7%
[1]
  AC50: 6.51 µM [rising, partial curve, poor fit]

## Cn1c(N/N=C/c2c[nH]c3ccccc23)nc2ccccc21
  cell number change: 6.54%
[1]
  AC50: 2.06 µM [rising, single point]

## CC(=O)O[C@]1(C(C)=O)CCC2C3C=C(C)C4=CC(=O)CC[C@]4(C)C3CC[C@@]21C (stereo partly specified)
  cell number change: 22.2%
[2]
  AC50: 0.291 µM [rising, full curve, poor fit]

## CC(C)CCNC(=O)CCNS(=O)(=O)c1ccc(Cl)cc1
  cell number change: -21.8%
[1]
  AC50: 2.91 µM [falling, partial curve]

## CN(C(=O)Cc1noc2ccccc12)c1ccccc1
  cell number change: 0.218%
[1]
  AC50: 0.146 µM [falling, full curve, poor fit]

## Cc1cc(Cn2ccnc2)c(C)cc1Cn1ccnc1
[1]
  AC50: 0.116 µM [rising, full curve, poor fit]

## CC(C)c1ccccc1OCC(O)CN1CCN(S(=O)(=O)c2ccc([N+](=O)[O-])cc2)CC1 (stereo unspecified)
  cell number change: -8.38%

## CC(C)CC(OC(=O)c1ccc(Cl)nc1)C(=O)NC1CCCC1 (stereo unspecified)
  cell number change: 16.2%
[1]
  AC50: 29.1 µM [rising, partial curve]

## Cc1nc(-c2ccc(S(=O)(=O)NCc3cccnc3)s2)cs1
  cell number change: -9.24%

## CCOC(=O)c1cnn(-c2ccccc2)c1NC(=O)c1ccc(C)cc1
  cell number change: 52.7%
[2]
  AC50: 18.4 µM [rising, single point]
[1]
  AC50: 0.259 µM [rising, full curve]

## CCNC(=S)N/N=C(\C)c1cccc(OC)c1
  cell number change: 6.41%
[1]
  AC50: 6.51 µM [falling, single point]

## CCOc1ccc(S(=O)(=O)NCCC(=O)NCC(c2ccc(OC)cc2)N2CCCC2)cc1 (stereo unspecified)
  cell number change: 3.74%
[1]
  AC50: 29.1 µM [falling, single point]

## COc1ccc(NC(=O)N2CCc3ccccc32)cc1
  cell number change: 20.7%

## O=C(CCOc1ccccc1)N1CCN(S(=O)(=O)c2ccccc2F)CC1
  cell number change: -1.84%
[1]
  AC50: 29.1 µM [rising, single point]

## COc1ccc(CN(C)C(=O)c2cccc(S(=O)(=O)N3CCc4ccccc43)c2)c(OC)c1
  cell number change: -27.5%
[1]
  AC50: 0.58 µM [rising, single point]

## Nc1c(Cl)c(Cl)nc(C(=O)N/N=C/c2cccnc2)c1Cl
  cell number change: 19.2%

## CS(=O)(=O)c1ccc(C(=O)N2CC(=O)Nc3ccccc32)cc1
  cell number change: 8.33%
[1]
  AC50: 0.13 µM [rising, partial curve, poor fit]

## O=C(CN1C(=O)CSC1=O)N1CCCC(Nc2ccc(F)cc2)C1 (stereo unspecified)
  cell number change: -20.9%
[1]
  AC50: 29.1 µM [falling, single point]

## O=C(Nc1cccc(Cl)c1)c1cc(F)cc2c1OCOC2
  cell number change: 0.0296%

## Cc1ccc2[nH]c(=O)c(CN(Cc3nnnn3C3CCCC3)C3CCCCC3)cc2c1
  cell number change: 0.26%
[1]
  AC50: 0.13 µM [falling, full curve, poor fit]

## O=C1/C(=C/c2ccccc2)CSc2sccc21
  cell number change: -0.195%
[1]
  AC50: 0.00461 µM [falling, full curve, poor fit]

## COCCn1c(NCc2ccco2)nc2c1c(=O)[nH]c(=O)n2C
  cell number change: 18%
[1]
  AC50: 0.517 µM [falling, single point]

## Cc1c(OCC(=O)NC(Cc2c[nH]c3ccc(O)cc23)C(=O)O)ccc2c3c(c(=O)oc12)CCC3 (stereo unspecified)
  cell number change: 0.81%

## Cc1ncc(CO)c(/C=N/NC(=O)c2cc(Br)ccc2O)c1O
  cell number change: 14.1%
[2]
  AC50: 6.51 µM [falling, single point]
[1]
  AC50: 3.66 µM [falling, full curve]

## Cc1cccc(-n2ccnc2SCC(=O)Nc2nccs2)c1C
  cell number change: -18.1%
[1]
  AC50: 5.17 µM [rising, partial curve, poor fit]
